# Results published in PubChem BioAssay AID248 (DTP/NCI, 2004).
# The list shows only some results of the screen, not a fair sample: it is rich in T/C values a quarter to a half above the control, in often repeated tests (any T/C) and in doses without a T/C. Further doses and runs are listed elsewhere. T/C: endpoint of the treated group in % of that of the vehicle group. Some doses have a count of surviving animals in place of a T/C: the source holds a T/C of zero for them, seemingly a mark for toxic or unscored doses. Some doses without a T/C left all or most animals alive at the check, yet need not have been tolerated: the source hardly ever lists a survival T/C far under the control, and the zero likely stands for such cases as well. Survivors were counted at the toxicity check, usually on the fifth day, unless a day is given; later deaths do not show. Schedule codes are those of the source, taken here to give the interval after Q, in days (D) or hours (H), and the number of doses after X. Some schedule codes hold Z or #, which are not explained here. Some doses were run more than once; their values stand side by side, smallest first. Where survival is the endpoint, this PubChem deposit counts one and a half times the control or more as active, and values a quarter to a half above the control carry no call in these data; other NCI protocols may use other cut-offs. Some T/C values are followed by the survivors on the day toxicity was checked, most often the fifth; without a count, all were alive then.
# System: L1210 leukemia ip in BDF1 mice, survival T/C
# Test: NCI In Vivo Anticancer Drug Screen. Data for tumor model L1210 Leukemia (intraperitoneal) in B6D2F1 (BDF1) mice
# Details: T/C endpoint: mean survival time, higher T/C = longer survival
# [1] = dose: 200.0 mg/kg/injection, schedule: Q04DX003 (ip), vehicle: Klucel (hydroxypropylcellulose) (HPC)
# [2] = dose: 400.0 mg/kg/injection, schedule: Q04DX003 (ip), vehicle: Klucel (hydroxypropylcellulose) (HPC)
# [3] = dose: 400.0 mg/kg/injection, schedule: Q01DX001 (ip), vehicle: saline
# [4] = dose: 40.0 mg/kg/injection, schedule: Q01DX001 (ip), vehicle: saline
smiles,measurement,setting,value
CSc1ncnc2nc[nH]c12,survivor count,"dose: 25.0 mg/kg/injection, schedule: Q01DX010 (ip), vehicle: saline",6 of 6
same,survivor count,"dose: 50.0 mg/kg/injection, schedule: Q01DX010 (ip), vehicle: saline",6 of 6
same,survivor count,"dose: 100.0 mg/kg/injection, schedule: Q01DX Z (oral), vehicle: methylcellulose (MC)",4 of 7
same,T/C,"dose: 100.0 mg/kg/injection, schedule: Q#A X Z (ip), vehicle: saline",126 % of control [5 of 6 alive]
same,T/C,"dose: 175.0 mg/kg/injection, schedule: Q#A X Z (ip), vehicle: carboxymethylcellulose (CMC)",125 % of control [4 of 6 alive]
same,survivor count,"dose: 200.0 mg/kg/injection, schedule: Q01DX010 (ip), vehicle: saline",6 of 6
same,survivor count,"dose: 200.0 mg/kg/injection, schedule: Q01DX Z (oral), vehicle: methylcellulose (MC)",3 of 7
same,survivor count,"dose: 225.0 mg/kg/injection, schedule: Q#A X Z (ip), vehicle: carboxymethylcellulose (CMC)",2 of 6
same,survivor count,"dose: 350.0 mg/kg/injection, schedule: Q01DX Z (ip), vehicle: carboxymethylcellulose (CMC)",0 of 6
same,survivor count,"dose: 400.0 mg/kg/injection, schedule: Q01DX001 (ip), vehicle: carboxymethylcellulose (CMC)",0 of 10 and 1 of 10
same,survivor count,"dose: 400.0 mg/kg/injection, schedule: Q01DX Z (oral), vehicle: methylcellulose (MC)",1 of 7
same,survivor count,"dose: 450.0 mg/kg/injection, schedule: Q01DX Z (ip), vehicle: carboxymethylcellulose (CMC)",0 of 6
same,T/C,"dose: 500.0 mg/kg/injection, schedule: Q01DX001 (ip), vehicle: methylcellulose (MC)",135 % of control [5 of 6 alive]
same,survivor count,"dose: 600.0 mg/kg/injection, schedule: Q01DX001 (ip), vehicle: carboxymethylcellulose (CMC)",0 of 10
same,survivor count,"dose: 600.0 mg/kg/injection, schedule: Q03DX Z (ip), vehicle: saline",3 of 6
same,survivor count,"dose: 800.0 mg/kg/injection, schedule: Q01DX Z (oral), vehicle: methylcellulose (MC)",0 of 7
same,survivor count,"dose: 1000.0 mg/kg/injection, schedule: Q01DX001 (ip), vehicle: methylcellulose (MC)",1 of 6
same,survivor count,"dose: 1500.0 mg/kg/injection, schedule: Q01DX001 (ip), vehicle: carboxymethylcellulose (CMC)",3 of 6
same,survivor count,"dose: 2000.0 mg/kg/injection, schedule: Q01DX001 (ip), vehicle: carboxymethylcellulose (CMC)",2 of 6
same,survivor count,"dose: 2500.0 mg/kg/injection, schedule: Q01DX001 (ip), vehicle: carboxymethylcellulose (CMC)",1 of 6
CCOc1cc(C=Nc2cc(Br)c(O)c(Br)c2)ccc1N(CCCl)CCCl,survivor count,"dose: 45.0 mg/kg/injection, schedule: Q01DX009 (ip), vehicle: carboxymethylcellulose (CMC)",6 of 6
same,T/C,"dose: 66.0 mg/kg/injection, schedule: Q01DX001 (ip), vehicle: carboxymethylcellulose (CMC)",132 % of control
CCOC(=O)C(=O)C(C#N)C(=O)OCC (stereo not given),survivor count,"dose: 150.0 mg/kg/injection, schedule: Q01DX009 (ip), vehicle: saline",4 of 6
same,survivor count,[1],5 of 6
same,survivor count,"dose: 225.0 mg/kg/injection, schedule: Q01DX009 (ip), vehicle: saline",1 of 6
same,survivor count,"dose: 335.0 mg/kg/injection, schedule: Q01DX009 (ip), vehicle: saline",0 of 6
same,survivor count,[2],4 of 6
Cc1ccc(NC(=O)Oc2ccc(F)cc2)cc1NC(=O)Oc1ccc(F)cc1,survivor count,"dose: 200.0 mg/kg/injection, schedule: Q01DX009 (ip), vehicle: other",4 of 6
same,survivor count,"dose: 400.0 mg/kg/injection, schedule: Q01DX009 (ip), vehicle: other",0 of 6
CC(C)(CBr)C(=O)N1CCN(C(=O)C(C)(C)CBr)CC1,T/C,"dose: 15.0 mg/kg/injection, schedule: Q01DX Z (ip), vehicle: methylcellulose (MC)",130 % of control [5 of 6 alive]
same,T/C,"dose: 21.0 mg/kg/injection, schedule: Q01DX Z (ip), vehicle: carboxymethylcellulose (CMC)",134 % of control [7 of 8 alive]
same,T/C,"dose: 35.0 mg/kg/injection, schedule: Q01DX Z (ip), vehicle: methylcellulose (MC)",130 % of control
same,survivor count,"dose: 42.0 mg/kg/injection, schedule: Q01DX Z (ip), vehicle: carboxymethylcellulose (CMC)",2 of 8
same,survivor count,"dose: 63.0 mg/kg/injection, schedule: Q01DX Z (ip), vehicle: carboxymethylcellulose (CMC)",0 of 8
same,survivor count,"dose: 102.0 mg/kg/injection, schedule: Q01DX Z (ip), vehicle: methylcellulose (MC)",6 of 6
same,survivor count,"dose: 153.0 mg/kg/injection, schedule: Q01DX Z (ip), vehicle: methylcellulose (MC)",5 of 6
Cn1ncc2c(N)ncnc21,survivor count,"dose: 100.0 mg/kg/injection, schedule: Q01DX009 (ip), vehicle: Klucel (hydroxypropylcellulose) (HPC)",4 of 6
C=Cc1ccc(N)cc1,survivor count,"dose: 100.0 mg/kg/injection, schedule: Q01DX009 (ip), vehicle: saline with Tween-80",6 of 6
same,survivor count,"dose: 400.0 mg/kg/injection, schedule: Q04DX003 (ip), vehicle: saline with Tween-80",6 of 6
CCOC(=O)CCN(Cc1ccco1)C(=S)Nc1ccccc1,survivor count,"dose: 100.0 mg/kg/injection, schedule: Q01DX Z (ip), vehicle: methylcellulose (MC)",6 of 6
C#CC[As+](c1ccccc1)(c1ccccc1)c1ccccc1,survivor count,"dose: 12.5 mg/kg/injection, schedule: Q01DX009 (ip), vehicle: Klucel (hydroxypropylcellulose) (HPC)",6 of 6
same,survivor count,"dose: 25.0 mg/kg/injection, schedule: Q01DX009 (ip), vehicle: Klucel (hydroxypropylcellulose) (HPC)",5 of 6
same,survivor count,"dose: 25.0 mg/kg/injection, schedule: Q04DX003 (ip), vehicle: Klucel (hydroxypropylcellulose) (HPC)",6 of 6
same,survivor count,"dose: 50.0 mg/kg/injection, schedule: Q04DX003 (ip), vehicle: Klucel (hydroxypropylcellulose) (HPC)",0 of 6
same,survivor count,"dose: 100.0 mg/kg/injection, schedule: Q04DX003 (ip), vehicle: Klucel (hydroxypropylcellulose) (HPC)",0 of 6
same,survivor count,[1],0 of 6
same,survivor count,[2],0 of 6
CCCN(CCC)c1ccc(SC#N)cc1,survivor count,[3],1 of 4
CCCCCCCCCCCCCCCCCC[N+](CC)(CC)CC,survivor count,"dose: 12.5 mg/kg/injection, schedule: Q01DX001 (ip), vehicle: Klucel (hydroxypropylcellulose) (HPC)",2 of 6
same,survivor count,"dose: 25.0 mg/kg/injection, schedule: Q01DX001 (ip), vehicle: Klucel (hydroxypropylcellulose) (HPC)",2 of 6
same,survivor count,"dose: 50.0 mg/kg/injection, schedule: Q01DX001 (ip), vehicle: Klucel (hydroxypropylcellulose) (HPC)",1 of 6
same,survivor count,"dose: 100.0 mg/kg/injection, schedule: Q01DX001 (ip), vehicle: Klucel (hydroxypropylcellulose) (HPC)",0 of 6
same,survivor count,"dose: 200.0 mg/kg/injection, schedule: Q01DX001 (ip), vehicle: Klucel (hydroxypropylcellulose) (HPC)",0 of 6
same,survivor count,"dose: 400.0 mg/kg/injection, schedule: Q01DX001 (ip), vehicle: Klucel (hydroxypropylcellulose) (HPC)",0 of 6
BrCc1cccc(C[P+](c2ccccc2)(c2ccccc2)c2ccccc2)c1,survivor count,[4],1 of 4
same,survivor count,"dose: 80.0 mg/kg/injection, schedule: Q01DX001 (ip), vehicle: saline",0 of 4
same,survivor count,"dose: 100.0 mg/kg/injection, schedule: Q01DX001 (ip), vehicle: saline",2 of 4
same,survivor count,"dose: 200.0 mg/kg/injection, schedule: Q01DX001 (ip), vehicle: saline",0 of 4
same,survivor count,[3],0 of 4
CCCCCCCC/C=C/CCCCCCCCC1=NCCN1CCO,survivor count,[4],2 of 6
same,survivor count,"dose: 75.0 mg/kg/injection, schedule: Q01DX001 (ip), vehicle: acetone",0 of 6
same,survivor count,"dose: 150.0 mg/kg/injection, schedule: Q01DX001 (ip), vehicle: acetone",0 of 6
same,survivor count,"dose: 300.0 mg/kg/injection, schedule: Q01DX001 (ip), vehicle: acetone",0 of 6
CC1(C)N=C(N)N=C(N)N1c1ccc(OCC(=O)Nc2ccc(S(=O)(=O)F)cc2)cc1,T/C,"dose: 100.0 mg/kg/injection, schedule: Q01DX009 (ip), vehicle: saline",129 % of control
same,survivor count,"dose: 500.0 mg/kg/injection, schedule: Q01DX009 (ip), vehicle: saline",0 of 6
